Record: PubChem BioAssay AID504808 (Drosophila RNAi Screening Center, 2011)
The screen tested about 21,000 reagents; this is a random part of those that have a named target and a result. Over the whole deposit, 18 (0.084%) got an active call. 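Raw counts without plate normalisation, one of two replicates; the ratio scores behind the calls were not deposited.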 Names joined by + are all predicted targets of the reagent. Reagent sequences are not shown. The record does not give: the amount of reagent, the time to read-out.

- Purpose: 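Chromatin factors that keep E2F targets switched off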 (primary screen)
- Cell system: Drosophila S2 cells
- Knock-down reagent: long dsRNA against Drosophila genes
- Detection: 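Dual luciferase plate measurements; E2F-specific signal taken as firefly over Renilla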
- Direction: E2F firefly: higher = more E2F reporter activity; Renilla normaliser: higher = more normaliser reporter signal
- Rule for the call: 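a knock-down counted as active when the firefly/Renilla E2F signal rose above 50%, a threshold chosen arbitrarily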

no.	Target gene	DRSC id	E2F firefly, rep 1	Renilla normaliser, rep 1	call
1	CG13377	DRSC18622	1.03e5	5230	inactive
2	CG6614	DRSC02974	82502	3644	inactive
3	CG31342	DRSC15349	77261	3621	inactive
4	CG31342	DRSC16246	1.08e5	5425	inactive
5	CG7049	DRSC08587	65697	3395	inactive
6	Neurochondrin	DRSC12580	61683	3526	inactive
7	spn-F	DRSC14475	1620	992	inactive
8	ng4	DRSC18805	1.31e5	6005	inactive
9	ND-ASHI	DRSC18291	1.25e5	5656	inactive
10	CG4744	DRSC06887	3084	240	inactive
11	CG12341	DRSC06133	1.58e5	4447	inactive
12	Fsn	DRSC06875	2746	194	inactive
13	Uhg2 + snoRNA:Me18S-G1620 + snoRNA:U14:30Ea	DRSC01100	1.24e5	7179	inactive
14	CG9752	DRSC04562	83534	3885	inactive
15	Klp31E	DRSC03354	86269	3807	inactive
16	CG14829	DRSC10199	1.02e5	4161	inactive
17	CG10660	DRSC09769	71660	5547	inactive
18	CG11695	DRSC19416	87257	4063	inactive
19	CG10183	DRSC14203	96434	5687	inactive
20	CG32755	DRSC18397	98145	5340	inactive
21	CG11369	DRSC17779	1.26e5	6734	inactive
22	OSCP1	DRSC06304	89897	3896	inactive
23	CG11200	DRSC06060	68495	3418	inactive
24	CG12020	DRSC08226	97985	4226	inactive
25	Hcf	DRSC17143	1813	1040	inactive
26	CG18281	DRSC11742	81390	3939	inactive
27	CG6470	DRSC19994	1.42e5	5211	inactive
28	CG8788	DRSC07267	1.46e5	4933	inactive
29	Dh44-R2	DRSC06141	1.02e5	4209	inactive
30	Dh44-R2	DRSC06281	1.01e5	4350	inactive
31	CG11594	DRSC08207	77302	3943	inactive
32	mRpL47	DRSC16827	1.16e5	6534	inactive
33	CG15097	DRSC06526	83362	3817	inactive
34	GstZ1	DRSC16478	62740	3302	inactive
